Results published in PubChem BioAssay AID1347075 (National Center for Advancing Translational Sciences (NCATS), 2019).
The campaign covered roughly 400,000 compounds. About 5,500 (1.4%) were called active. The shares of active, inactive and inconclusive entries below differ from those in the screen. Calls come from the whole dose curve; as a rule, active = well fitted cell-killing curve with a large enough effect; inconclusive = small, poorly fitted or top-dose-only effect, or effect the other way; inactive = flat fitted curve, though single readings scatter. Potencies beside an inconclusive call are fits to weak or partial responses and may not hold up.

Assay: qHTS assay for MDR1-selective chemotherapeutics: Primary screen using the parental adenocarcinoma cell KB-3-1; note: nearly all actives have a fitted effect of over 60% in size
Settings: KB-3-1 viability, CellTiter-Glo ATP luminescence, 72 h; series mostly up to 46.1 µM
Procedure, shortened: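 Screening of KB-3-1 cells (DMEM, 10% FBS, phenol-red free) ran from lowest to highest compound concentration; after 72 h at 37 °C viability was read luminescently and curves fitted.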
Potency is the fitted concentration of half-maximal effect.

For `O=C(Nc1ccc(N2CCOCC2)nc1)c1ccccc1Cl`, which Potency is on record?
Its Potency is “inactive”.

Which Potency does the source give for `COC(=O)C(Cc1ccccc1)NC(=O)c1ccc(NS(=O)(=O)c2ccc3[nH]c(=O)[nH]c3c2)cc1` (stereo unspecified) here?
The Potency was “inactive”.

With `CN(C)C(=O)CNc1ccn2nc(-c3cccc(OCCN4CCOCC4)c3)cc2n1` as the compound, how does the Potency read?
Its Potency is “inactive”.

Which Potency does the source give for `N#C/C(=C/c1ccccc1OCc1ccc(F)cc1)c1ccc(C(=O)O)cc1` here?
The Potency was “inactive”.

With `CCN1C(=O)/C(=C/c2ccc(OCc3ccc(C(=O)O)cc3)c(Cl)c2)NC1=S` as the compound, how does the Potency read?
The Potency was “inactive”.

With `Cc1ccc(NC(=O)C(c2ccc(Cl)cc2)N2CCCCC2)cc1` (stereo unspecified) as the compound, how does the Potency read?
The Potency was inconclusive: 23.1 µM [cytotoxic, single point].

For `COCCNC(=O)CSc1cc(-c2ccccc2)c2ccc(OC)cc2n1`, which Potency is on record?
Its Potency is inconclusive: 23.1 µM [cytotoxic, single point].

With `CCOC(=O)C1=C[C@@H](C(C)(C)C)N(S(=O)(=O)c2ccc(C)cc2)[C@H]1c1cccc(Cl)c1` as the compound, how does the Potency read?
The Potency was inconclusive: 29.1 µM [cytotoxic, single point].

With `Cn1c(=O)c(C(=O)NNC(=O)c2ccc(Br)cc2)c(O)c2ccccc21` as the compound, how does the Potency read?
Its Potency is active: 25.9 µM.

With `COc1ccc(C(=O)NN=C2CCCC2)cc1OC` as the compound, how does the Potency read?
Its Potency is “inactive”.

Which Potency does the source give for `COCC1CCCC1OS(N)(=O)=O` (stereo unspecified) here?
Its Potency is “inactive”.

With `COc1cccc(N2CCN(c3ccc(S(=O)(=O)N4CCN(C)CC4)cc3[N+](=O)[O-])CC2)c1` as the compound, how does the Potency read?
Its Potency is inconclusive: 13 µM [cytotoxic, partial curve, poor fit].

With `CCc1nc2c(OCCOc3ccccc3)cccn2c1N(C=O)Cc1ccc(OC)cc1` as the compound, how does the Potency read?
Its Potency is inconclusive: 14.6 µM [cytotoxic, full curve, poor fit].

With `Cc1cc(Br)ccc1NC(=O)C(Cc1ccccc1)NS(=O)(=O)c1ccc(Br)s1` (stereo unspecified) as the compound, how does the Potency read?
The Potency was “inactive”.

With `Cc1ccc(S(=O)(=O)N(C)c2ccc(OC(=O)c3cccs3)cc2)cc1C` as the compound, how does the Potency read?
The Potency was “inactive”.

Which Potency does the source give for `Cn1cc(CC(=O)N2CCN(c3ccc(Cl)cc3)CC2)c2ccccc21` here?
The Potency was inconclusive: 23.1 µM [cytotoxic, partial curve].

For `CCCN(CCC)C(=O)CSc1nc2ccccc2c(=O)n1CC1COc2ccccc2O1` (stereo unspecified), which Potency is on record?
The Potency was inconclusive: 29.1 µM [cytotoxic, single point].

Which Potency does the source give for `CCn1c(/C=C/c2ccc(O)cc2)nc2ccccc2c1=O` here?
Its Potency is inconclusive: 32.6 µM [cytotoxic, single point].

With `CCOC(=O)N1CCN(C(=O)C2CCN(C(=O)c3ccccc3C)CC2)CC1` as the compound, how does the Potency read?
Its Potency is inconclusive: 29.1 µM [cytotoxic, single point].

With `O=C(c1cn(Cc2ccccc2)nc1-c1ccccc1)N1CCN(c2ccccn2)CC1` as the compound, how does the Potency read?
The Potency was active: 10.3 µM.

With `CCOc1ccc2nc(N(CCCN(C)C)C(=O)c3ccc(C(=O)c4ccccc4)cc3)sc2c1` as the compound, how does the Potency read?
The Potency was inconclusive: 25.9 µM [cytotoxic, single point].
